Holding throughout (test): affinity purification with mass spectrometry
In test [1] the target is C-Strep HeV M (Hendra virus matrix protein with C-terminal Strep-tag II) (Hendra virus) (UniProt O89341).
Test [2] addresses N-Strep HeV M (Hendra virus matrix protein with N-terminal Strep-tag II) (Hendra virus) (UniProt O89341).
Test [3] addresses Strep-ANP32B (N-terminally Strep-tagged ANP32B) (human) (UniProt Q92688).

Amino acid sequences for entries named in this document (tags omitted). A change or cut given only in a name is not applied to a line headed by its entry.
UniProt Q92688: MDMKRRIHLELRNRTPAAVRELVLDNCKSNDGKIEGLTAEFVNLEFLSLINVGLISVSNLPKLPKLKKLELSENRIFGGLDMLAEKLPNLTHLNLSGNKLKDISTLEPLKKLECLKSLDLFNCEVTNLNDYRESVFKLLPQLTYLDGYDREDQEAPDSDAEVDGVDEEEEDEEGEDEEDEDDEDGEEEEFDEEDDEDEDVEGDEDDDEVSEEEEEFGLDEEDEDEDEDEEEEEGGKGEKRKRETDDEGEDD

No constants are given. Whether binding was seen depends on the method and setting. Binding seen in cells or lysates may run through a third protein. These calls come from enrichment with a bait or labelling near it, and not all partners need be listed.

In the case of “acidic leucine-rich nuclear phosphoprotein 32 family member B (ANP32B), endogenous (from UniProt Q92688-1 1-251)”, the binding result in test [1] and in test [2] was “binds” in each case.

As to “untagged HeV M (Hendra virus matrix protein) (from UniProt O89341 1-352)”, in test [3], the binding entry was “binds”.

Values taken from article PMC4019565.
